In the supplement of paper PMC7877785:
± gives the uncertainty stated by the source. The uncertainty is large for many entries.

Assay: self-splicing fitness, log relative to wild type (ln ratio); higher = more splicing; Tetrahymena group I intron in knt gene, E. coli kanamycin selection, DiMSum; sequences stand for … in CUCUCU…GGAGGGAAAAGUUAUCAGGCAUGCACCUGGUAGCUAGUCUUUAAACCAAUAGAUUGCAUCGGUUUAAAAGGCAAGACCGUCAAAUUGCGGGAAAGGGGUCAACAGCCGUUCAGUACCAAGUCUCAGGGGAAACUUUGAGAUGGCCUUGCAAAGGGUAUGGUAAUAAGCUGACGGACAUGGUCCUAACCACGCAGCCAAGUCCUAAGUCAACAGAUCUUCUGUUGAUAUGGAUGCAGUUCACAGACUAAAUGUCGGUCGGGGAAGAUGUAUUCUUCUCAUAAGAUAUAGUCGGACCUCUCCUUAAUGGGAGCUAGCGGAUGAAGUGAUGCAACACUGGAGCCGCUGGGAACUAAUUUGUAUGCGAAAGUAUAUUGAUUAGUUUUGGAGUACUCGUGGUCG
Summary of the method: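 Six replicate transformations of E. coli BL21(DE3) with a pET-22b(+) library were grown overnight at 37°C or 30°C. The library randomised all eight P1ex-region intron nucleotides, the intron lying in the knt kanamycin-resistance gene, and plates were LB agar with or without 25 μg/mL kanamycin plus 100 μg/mL carbenicillin, 50 μM IPTG and 0.2% rhamnose. Pooled colonies were amplicon-sequenced on an Illumina HiSeq 2500, and fitness is the DiMSum error-weighted combination of wild-type-normalised replicate fold changes, kanamycin versus none.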

| Sequence | self-splicing fitness (ln) (37 °C) | self-splicing fitness (ln) (30 °C) |
| --- | --- | --- |
| AAGGAGCAAUAUUACGACCG | -2.29 ± 0.56 |  |
| UUGAAGCAAUAUUACGUAUC |  | -5.62 ± 1 |
| CCAGAGCAAUAUUACGCGCA | -3.25 ± 0.6 |  |
| CGUGAGCAAUAUUACGCUUU | -1.98 ± 0.28 | -2.54 ± 0.35 |
| GCGCAGCAAUAUUACGGCAG | -2.85 ± 0.19 | -3.47 ± 0.15 |
| CAGGAGCAAUAUUACGUUCC | -2.04 ± 0.27 | -3.33 ± 0.23 |
| CGUUAGCAAUAUUACGAGAA | -1.45 ± 0.46 | -1.93 ± 0.49 |
| GACCAGCAAUAUUACGACUC | 0.162 ± 0.077 | -0.264 ± 0.06 |
| AGCGAGCAAUAUUACGAAAA |  | -0.721 ± 0.78 |
| GAAUAGCAAUAUUACGAGAC | -0.147 ± 0.18 | -3.73 ± 0.74 |
| GCCGAGCAAUAUUACGAAAG | -3.16 ± 0.74 |  |
| GUCGAGCAAUAUUACGUCCU | -0.735 ± 1 | -1.68 ± 0.82 |
| UCGCAGCAAUAUUACGGGAC | -1.32 ± 0.62 | -2.84 ± 0.55 |
| AUCAAGCAAUAUUACGCCCG | -0.202 ± 0.2 | -0.965 ± 0.17 |
| UCUCAGCAAUAUUACGACGC |  | -2.44 ± 0.63 |
| CCAGAGCAAUAUUACGCGAU |  | -5.27 ± 0.71 |
| AUCCAGCAAUAUUACGACCA | -0.224 ± 0.17 | -0.725 ± 0.15 |
| GAAGAGCAAUAUUACGUGCU | -3.36 ± 0.73 | -3.52 ± 0.22 |
| CGAGAGCAAUAUUACGGCUU |  | -2.94 ± 0.5 |
| UGUGAGCAAUAUUACGCGGC | -2.16 ± 1.1 | -3.48 ± 1.1 |
| CUUCAGCAAUAUUACGUCAC |  | -4.73 ± 0.72 |
| CCGAAGCAAUAUUACGCAGG | -2.18 ± 0.76 |  |
| GGCUAGCAAUAUUACGGAGA | -2.67 ± 0.54 |  |
| UAGGAGCAAUAUUACGAUAA | -1 ± 0.78 |  |

| Sequence | self-splicing fitness (ln) (37 °C) | self-splicing fitness (ln) (30 °C) |
| --- | --- | --- |
| CGUUAGCAAUAUUACGCGUC | -3.34 ± 0.6 |  |
| AUUUAGCAAUAUUACGCUAC | -3.28 ± 0.6 | -1.52 ± 0.87 |
| UCGGAGCAAUAUUACGUACU |  | -4.81 ± 0.72 |
| AGUGAGCAAUAUUACGCCAC |  | -1.93 ± 1.2 |
| GGACAGCAAUAUUACGUGCA | -0.64 ± 0.09 | -0.37 ± 0.085 |
| UUCCAGCAAUAUUACGAUAC | -2.03 ± 1.1 | -4.01 ± 0.74 |
| CUUAAGCAAUAUUACGGACC |  | -3.83 ± 1 |
| CCUAAGCAAUAUUACGGUAA | -2.73 ± 0.25 | -2.48 ± 0.24 |
| CAUCAGCAAUAUUACGCCCC | -1.53 ± 0.5 |  |
| UCUAAGCAAUAUUACGCGGC | -1.59 ± 0.36 |  |
| GGGGAGCAAUAUUACGGUUC | -2.04 ± 0.59 | -4.54 ± 0.51 |
| GGUUAGCAAUAUUACGCUAA | -2 ± 0.51 |  |
| UCGCAGCAAUAUUACGGUAC |  | -2.94 ± 0.61 |
| AACUAGCAAUAUUACGCGGA | -1.18 ± 0.086 | -2.25 ± 0.1 |
| AAGUAGCAAUAUUACGCAAA |  | -2.62 ± 0.52 |
| UGGGAGCAAUAUUACGUGUA |  | -4 ± 0.61 |
| CCAGAGCAAUAUUACGCACU | -3.59 ± 0.73 |  |
| CUUCAGCAAUAUUACGGGUA | -3.74 ± 0.28 | -3.12 ± 0.22 |
| AGUGAGCAAUAUUACGCUCU |  | -3.96 ± 1 |
| UUAUAGCAAUAUUACGCAGU |  | -3.79 ± 0.73 |
| GUUUAGCAAUAUUACGUGGC | -1.46 ± 0.33 | -0.884 ± 0.32 |
| GCGGAGCAAUAUUACGCGGC | -0.829 ± 0.68 |  |
| GGCUAGCAAUAUUACGAAGC | -2.1 ± 0.51 | -3.06 ± 1.1 |
| CUGUAGCAAUAUUACGAAUU |  | -4.44 ± 0.72 |

| Sequence | self-splicing fitness (ln) (37 °C) | self-splicing fitness (ln) (30 °C) |
| --- | --- | --- |
| GCAUAGCAAUAUUACGCAUG | -2.12 ± 0.19 | -3.79 ± 0.23 |
| AGUUAGCAAUAUUACGCUUC | -3.17 ± 0.52 |  |
| UUCUAGCAAUAUUACGAUGC | -2.86 ± 0.38 | -2.12 ± 0.3 |
| UUCGAGCAAUAUUACGCUUG | -1.92 ± 0.57 |  |
| CUAUAGCAAUAUUACGUCGC | -3.56 ± 0.52 |  |
| GCAAAGCAAUAUUACGAAGA | -2.45 ± 0.23 | -1.88 ± 0.18 |
| UUUUAGCAAUAUUACGAUCC | -0.735 ± 1 |  |
| CUCAAGCAAUAUUACGCCAU |  | -4.98 ± 1 |
| CUGGAGCAAUAUUACGAAAC | -1.08 ± 0.83 | -3.01 ± 0.56 |
| AUGGAGCAAUAUUACGCGCC |  | -2.29 ± 0.61 |
| UCCCAGCAAUAUUACGACAC | -1.39 ± 0.55 | -4.98 ± 0.71 |
| AUGUAGCAAUAUUACGGCAC | 0.329 ± 0.18 | -1.59 ± 0.18 |
| CUAUAGCAAUAUUACGAGUG | 0.361 ± 0.1 | -0.752 ± 0.071 |
| AGCAAGCAAUAUUACGAGCC | -1.31 ± 0.56 |  |
| CCUUAGCAAUAUUACGGACA | -2.47 ± 0.63 |  |
| UUUGAGCAAUAUUACGAGCG |  | -3.88 ± 1.1 |
| UCAUAGCAAUAUUACGUCAA | -3.28 ± 0.52 |  |
| ACCUAGCAAUAUUACGCAUG | -1.42 ± 0.14 | -2.27 ± 0.15 |
| CUGUAGCAAUAUUACGCCUC | -1.95 ± 0.81 |  |
| GCGGAGCAAUAUUACGCAAU | -2.2 ± 1.1 |  |
| UCGUAGCAAUAUUACGAGCU | -0.44 ± 1.4 | -0.828 ± 0.82 |
| GUGAAGCAAUAUUACGAGUU | -1.14 ± 0.15 | -2.5 ± 0.12 |
| UUAGAGCAAUAUUACGGUUU | -2.08 ± 0.66 | -4.57 ± 1 |
| UGGGAGCAAUAUUACGUUAC | -2.74 ± 0.55 |  |

| Sequence | self-splicing fitness (ln) (37 °C) | self-splicing fitness (ln) (30 °C) |
| --- | --- | --- |
| AUGGAGCAAUAUUACGUCAC | -2.05 ± 0.51 |  |
| AUGGAGCAAUAUUACGCGGG | -2.16 ± 0.55 | -2.84 ± 0.45 |
| CGCGAGCAAUAUUACGGGCC | -2.87 ± 0.75 |  |
| UUGGAGCAAUAUUACGAGAA | -1.78 ± 0.44 | -1.61 ± 0.76 |
| AUAUAGCAAUAUUACGGAGC |  | -2.93 ± 0.53 |
| AUGGAGCAAUAUUACGGAAG | -2.95 ± 0.61 |  |
| GUUGAGCAAUAUUACGCUAC | -0.471 ± 0.57 | -1.28 ± 0.49 |
| CAGUAGCAAUAUUACGUUGA |  | -5.39 ± 0.51 |
| CUAGAGCAAUAUUACGUGCA | -2.18 ± 0.19 | -3.88 ± 0.21 |
| UCGUAGCAAUAUUACGUCGC |  | -2.58 ± 0.8 |
| CAAAAGCAAUAUUACGGGGA | -2.36 ± 0.15 | -3.26 ± 0.15 |
| ACUUAGCAAUAUUACGUGGA | -2.7 ± 0.16 | -2.47 ± 0.13 |
| UACUAGCAAUAUUACGCAAG | -1.72 ± 0.24 | -2.98 ± 0.33 |
| UUGUAGCAAUAUUACGACUC | 0.363 ± 0.58 | 0.426 ± 0.51 |
| UUGGAGCAAUAUUACGCCCG | 0.254 ± 1.2 |  |
| GGGAAGCAAUAUUACGUCGG |  | -3.6 ± 0.59 |
| GGAGAGCAAUAUUACGAGUU | -4.34 ± 0.51 |  |
| AUUGAGCAAUAUUACGACUG |  | -3.63 ± 0.52 |
| CUCGAGCAAUAUUACGCUCA | -2.15 ± 0.45 | -1.96 ± 0.27 |
| CGGUAGCAAUAUUACGUUAU | -2.01 ± 0.65 |  |
| CCGGAGCAAUAUUACGAUAC |  | -3.54 ± 0.6 |
| UGGGAGCAAUAUUACGCGUU | -2.02 ± 0.44 | -2.33 ± 0.28 |
| CCUCAGCAAUAUUACGACAA | -2.31 ± 0.25 | -1.92 ± 0.17 |
| CUAGAGCAAUAUUACGUCCA |  | -4.05 ± 0.74 |

Reformatted comma-delimited: entries from further up.
Sequence,self-splicing fitness (ln) (37 °C),self-splicing fitness (ln) (30 °C)
AUGGAGCAAUAUUACGUCAC,-2.05 ± 0.51,
AUGGAGCAAUAUUACGCGGG,-2.16 ± 0.55,-2.84 ± 0.45
CGCGAGCAAUAUUACGGGCC,-2.87 ± 0.75,
UUGGAGCAAUAUUACGAGAA,-1.78 ± 0.44,-1.61 ± 0.76

Later entries:

| Sequence | self-splicing fitness (ln) (37 °C) | self-splicing fitness (ln) (30 °C) |
| --- | --- | --- |
| CUUUAGCAAUAUUACGUCGA |  | -4.04 ± 1.1 |
| UGGCAGCAAUAUUACGAUUC |  | -4.41 ± 0.59 |
| CCACAGCAAUAUUACGCUAC | -2.33 ± 0.56 | -3.95 ± 0.6 |
| GAGCAGCAAUAUUACGAGGG | -2.81 ± 0.38 | -4.56 ± 0.59 |
| UAGAAGCAAUAUUACGUAAC | -0.493 ± 0.53 | -2.25 ± 0.84 |
| CCUAAGCAAUAUUACGGCCC | -2.99 ± 1 |  |
| CUUCAGCAAUAUUACGCAAC | -3.38 ± 0.6 |  |
| GCGUAGCAAUAUUACGUACG | -2.88 ± 0.17 | -3.93 ± 0.18 |
| UCUGAGCAAUAUUACGACCA | 0.0535 ± 0.77 | -2.73 ± 0.8 |
| CUGUAGCAAUAUUACGCGUC |  | -2.62 ± 0.56 |
| AGAAAGCAAUAUUACGUAUC | -2.34 ± 0.24 | -3.62 ± 0.3 |
| GGGAAGCAAUAUUACGUUCC | -2.68 ± 0.54 |  |
| UUUUAGCAAUAUUACGGGCU | -0.234 ± 1.4 |  |
| CCCGAGCAAUAUUACGAAGG |  | -4.73 ± 0.59 |
| UAGGAGCAAUAUUACGCGCU | -1.9 ± 0.81 | -5.04 ± 1 |
| CCUGAGCAAUAUUACGGCAC |  | -3.95 ± 0.59 |
| GACGAGCAAUAUUACGUCGA | -2.11 ± 0.55 |  |
| UUAGAGCAAUAUUACGGACU | -1.37 ± 0.71 | -4.12 ± 1 |
| GUUUAGCAAUAUUACGGGUU |  | -3.23 ± 0.6 |
| UCGGAGCAAUAUUACGACUC |  | -1.96 ± 1.2 |
| UUUUAGCAAUAUUACGCAAU | -3.07 ± 0.54 |  |
